Results are given in words; binding and its absence hold for the method and conditions named. Binding seen in cells or lysates may run through a third protein. Some entries that bind do so weakly or less than the wild type.
What was measured:
[1] = target: full-length p53 (p53+) expressed in yeast (human) (UniProt P04637); assay: co-IP; yeast whole cell extracts (strains SY1000 and SY1004 grown in 1.8% raffinose/0.2% galactose); p53 precipitated with mAb DO-1, Rpb1 detected with anti-CTD antiserum
[2] = target: core domain-deleted p53 (p53coreΔ), lacking amino acids 91-294 (human) (UniProt P04637); assay: as above
[3] = target: Rpb1, the large subunit of RNA polymerase II (Pol II) (S. cerevisiae (endogenous in yeast whole cell extract)) (UniProt P04050); assay: co-IP; reciprocal reaction: yeast whole cell extracts (strains SY1000 and SY1004 grown in 1.8% raffinose/0.2% galactose); Rpb1 precipitated with anti-Pol II (CTD) antiserum, p53 detected with DO-1

binding [1]	binding [2]	binding [3]	Substance
binds	no binding		Rpb1, the large subunit of RNA polymerase II (Pol II) (from UniProt P04050 1-1733)
		binds	full-length p53 (p53+) expressed in yeast (from UniProt P04637 1-393)
		no binding	core domain-deleted p53 (p53coreΔ), lacking amino acids 91-294 (from UniProt P04637 1-393)

From publication PMC3150338
